Reference: the supplement of paper PMC10849652
The list shows a part of the results. Residues, ends and D or L forms follow the SMILES beside them. *: point of attachment. Cbz = O=C(OCc1ccccc1)*

By UniProt entry, the sequences of proteins in these tests, tags left out. Where a name states a change or a piece, a line headed by the entry shows the natural chain unless it says otherwise.
UniProt Q5UCC4: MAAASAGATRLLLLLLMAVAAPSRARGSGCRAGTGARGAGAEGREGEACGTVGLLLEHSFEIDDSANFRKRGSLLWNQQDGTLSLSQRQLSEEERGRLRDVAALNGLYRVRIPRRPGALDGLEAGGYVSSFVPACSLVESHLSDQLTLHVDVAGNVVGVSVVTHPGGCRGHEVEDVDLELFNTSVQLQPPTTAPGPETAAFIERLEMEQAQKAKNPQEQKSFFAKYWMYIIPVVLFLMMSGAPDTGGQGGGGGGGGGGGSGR
UniProt P41567, whole entry, looked up: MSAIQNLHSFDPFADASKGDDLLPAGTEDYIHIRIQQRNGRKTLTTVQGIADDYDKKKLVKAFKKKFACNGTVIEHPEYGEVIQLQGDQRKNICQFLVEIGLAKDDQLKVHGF
UniProt Q9HC35: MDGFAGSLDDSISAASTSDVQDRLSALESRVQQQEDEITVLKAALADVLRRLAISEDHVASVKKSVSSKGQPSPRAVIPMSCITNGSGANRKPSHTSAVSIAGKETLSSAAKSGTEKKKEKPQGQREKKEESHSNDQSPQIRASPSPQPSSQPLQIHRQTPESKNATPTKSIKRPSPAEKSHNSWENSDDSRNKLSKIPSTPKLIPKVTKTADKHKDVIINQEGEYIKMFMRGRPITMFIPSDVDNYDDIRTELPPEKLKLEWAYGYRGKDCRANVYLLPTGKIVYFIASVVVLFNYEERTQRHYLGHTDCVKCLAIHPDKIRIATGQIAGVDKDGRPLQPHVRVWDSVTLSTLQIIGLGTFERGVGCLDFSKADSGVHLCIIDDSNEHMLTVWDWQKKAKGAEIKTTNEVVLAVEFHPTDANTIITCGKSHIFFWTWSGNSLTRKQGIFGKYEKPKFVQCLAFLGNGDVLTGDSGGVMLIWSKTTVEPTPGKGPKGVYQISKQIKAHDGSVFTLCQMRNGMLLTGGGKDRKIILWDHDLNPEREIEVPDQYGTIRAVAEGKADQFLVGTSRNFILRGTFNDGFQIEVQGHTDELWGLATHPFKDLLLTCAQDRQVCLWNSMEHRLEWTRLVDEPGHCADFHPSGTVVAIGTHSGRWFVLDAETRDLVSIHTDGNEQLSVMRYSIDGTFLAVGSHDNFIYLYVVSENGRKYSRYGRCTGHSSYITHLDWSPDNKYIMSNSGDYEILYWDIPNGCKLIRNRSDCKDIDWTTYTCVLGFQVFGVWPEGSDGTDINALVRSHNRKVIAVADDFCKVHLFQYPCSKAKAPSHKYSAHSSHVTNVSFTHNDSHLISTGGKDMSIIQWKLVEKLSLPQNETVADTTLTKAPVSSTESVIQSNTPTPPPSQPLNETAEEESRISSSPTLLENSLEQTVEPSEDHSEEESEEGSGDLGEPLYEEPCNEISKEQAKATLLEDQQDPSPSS
UniProt P63241: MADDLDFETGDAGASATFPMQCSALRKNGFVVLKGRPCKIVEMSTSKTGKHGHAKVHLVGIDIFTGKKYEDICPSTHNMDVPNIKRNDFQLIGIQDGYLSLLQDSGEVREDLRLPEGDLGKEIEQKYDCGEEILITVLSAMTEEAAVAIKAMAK
UniProt P13929, whole entry, looked up: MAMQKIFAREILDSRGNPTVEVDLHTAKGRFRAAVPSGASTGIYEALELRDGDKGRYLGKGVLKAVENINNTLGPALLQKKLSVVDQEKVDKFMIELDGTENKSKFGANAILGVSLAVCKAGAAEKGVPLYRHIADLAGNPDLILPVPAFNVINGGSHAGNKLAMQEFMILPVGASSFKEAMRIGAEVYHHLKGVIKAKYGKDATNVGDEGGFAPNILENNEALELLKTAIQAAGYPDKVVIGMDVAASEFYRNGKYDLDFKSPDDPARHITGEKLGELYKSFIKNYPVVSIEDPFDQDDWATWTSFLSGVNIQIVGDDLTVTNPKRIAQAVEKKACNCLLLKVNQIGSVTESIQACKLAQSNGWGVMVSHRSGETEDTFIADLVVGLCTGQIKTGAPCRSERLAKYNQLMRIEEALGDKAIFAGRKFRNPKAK
UniProt Q08426: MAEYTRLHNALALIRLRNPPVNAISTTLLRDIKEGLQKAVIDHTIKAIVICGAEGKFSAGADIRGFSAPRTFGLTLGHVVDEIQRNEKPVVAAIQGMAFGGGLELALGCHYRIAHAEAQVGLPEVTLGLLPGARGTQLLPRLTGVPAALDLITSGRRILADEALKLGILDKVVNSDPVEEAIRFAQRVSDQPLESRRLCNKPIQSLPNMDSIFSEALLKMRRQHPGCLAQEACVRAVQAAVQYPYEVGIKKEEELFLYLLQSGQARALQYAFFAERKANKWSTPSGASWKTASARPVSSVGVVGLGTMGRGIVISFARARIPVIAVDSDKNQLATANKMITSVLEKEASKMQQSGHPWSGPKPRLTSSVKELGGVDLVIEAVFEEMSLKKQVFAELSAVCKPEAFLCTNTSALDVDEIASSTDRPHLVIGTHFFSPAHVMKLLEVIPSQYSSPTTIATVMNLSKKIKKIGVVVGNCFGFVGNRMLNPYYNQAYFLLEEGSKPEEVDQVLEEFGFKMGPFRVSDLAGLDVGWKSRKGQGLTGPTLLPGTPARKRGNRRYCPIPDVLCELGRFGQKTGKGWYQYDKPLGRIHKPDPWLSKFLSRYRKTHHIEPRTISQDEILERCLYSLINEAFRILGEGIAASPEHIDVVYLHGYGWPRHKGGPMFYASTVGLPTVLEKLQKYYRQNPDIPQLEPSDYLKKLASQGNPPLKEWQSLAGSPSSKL
UniProt Q32P44: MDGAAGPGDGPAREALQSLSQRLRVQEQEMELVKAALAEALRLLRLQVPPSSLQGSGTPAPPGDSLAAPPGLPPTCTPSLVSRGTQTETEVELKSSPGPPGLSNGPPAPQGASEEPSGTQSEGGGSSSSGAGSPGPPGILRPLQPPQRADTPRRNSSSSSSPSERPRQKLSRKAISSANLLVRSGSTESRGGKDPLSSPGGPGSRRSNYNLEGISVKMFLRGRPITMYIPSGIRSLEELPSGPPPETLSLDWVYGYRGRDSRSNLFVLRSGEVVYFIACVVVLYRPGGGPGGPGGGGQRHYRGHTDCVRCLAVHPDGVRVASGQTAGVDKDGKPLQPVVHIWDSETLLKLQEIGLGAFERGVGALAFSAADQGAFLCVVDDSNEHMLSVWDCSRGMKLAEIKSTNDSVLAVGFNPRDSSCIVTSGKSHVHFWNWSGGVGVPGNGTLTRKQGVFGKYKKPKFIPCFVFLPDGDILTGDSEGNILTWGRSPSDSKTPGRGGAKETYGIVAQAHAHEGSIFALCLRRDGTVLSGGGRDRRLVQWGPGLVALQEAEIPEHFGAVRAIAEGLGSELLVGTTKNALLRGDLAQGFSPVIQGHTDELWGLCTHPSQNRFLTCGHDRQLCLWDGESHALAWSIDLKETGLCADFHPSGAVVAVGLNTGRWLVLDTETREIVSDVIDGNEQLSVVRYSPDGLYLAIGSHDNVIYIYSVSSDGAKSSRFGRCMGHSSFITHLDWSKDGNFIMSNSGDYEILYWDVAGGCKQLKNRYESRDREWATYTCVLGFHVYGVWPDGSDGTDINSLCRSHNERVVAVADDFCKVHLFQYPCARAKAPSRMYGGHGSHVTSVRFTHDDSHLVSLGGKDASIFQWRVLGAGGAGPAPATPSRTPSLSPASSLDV
UniProt Q96EB1: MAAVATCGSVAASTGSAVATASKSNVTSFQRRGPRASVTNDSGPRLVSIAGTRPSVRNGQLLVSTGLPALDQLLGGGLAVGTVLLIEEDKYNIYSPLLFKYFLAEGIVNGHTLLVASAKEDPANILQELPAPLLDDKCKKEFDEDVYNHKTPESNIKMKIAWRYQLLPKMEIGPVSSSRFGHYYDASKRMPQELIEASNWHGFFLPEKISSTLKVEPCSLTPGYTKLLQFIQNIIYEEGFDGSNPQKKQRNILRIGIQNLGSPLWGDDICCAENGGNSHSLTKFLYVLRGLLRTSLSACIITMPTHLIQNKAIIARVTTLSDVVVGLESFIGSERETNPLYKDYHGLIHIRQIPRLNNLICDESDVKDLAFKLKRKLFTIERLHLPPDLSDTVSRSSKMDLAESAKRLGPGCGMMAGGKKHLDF
UniProt P05198, whole entry, looked up: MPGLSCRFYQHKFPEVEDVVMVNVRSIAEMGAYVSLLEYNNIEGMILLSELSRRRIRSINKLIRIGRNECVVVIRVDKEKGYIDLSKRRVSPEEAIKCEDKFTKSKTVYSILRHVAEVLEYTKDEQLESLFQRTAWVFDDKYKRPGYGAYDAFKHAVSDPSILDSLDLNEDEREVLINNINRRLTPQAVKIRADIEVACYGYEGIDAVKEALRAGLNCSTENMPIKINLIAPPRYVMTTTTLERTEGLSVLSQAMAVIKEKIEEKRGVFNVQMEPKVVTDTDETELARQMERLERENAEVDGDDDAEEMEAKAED
UniProt P41214: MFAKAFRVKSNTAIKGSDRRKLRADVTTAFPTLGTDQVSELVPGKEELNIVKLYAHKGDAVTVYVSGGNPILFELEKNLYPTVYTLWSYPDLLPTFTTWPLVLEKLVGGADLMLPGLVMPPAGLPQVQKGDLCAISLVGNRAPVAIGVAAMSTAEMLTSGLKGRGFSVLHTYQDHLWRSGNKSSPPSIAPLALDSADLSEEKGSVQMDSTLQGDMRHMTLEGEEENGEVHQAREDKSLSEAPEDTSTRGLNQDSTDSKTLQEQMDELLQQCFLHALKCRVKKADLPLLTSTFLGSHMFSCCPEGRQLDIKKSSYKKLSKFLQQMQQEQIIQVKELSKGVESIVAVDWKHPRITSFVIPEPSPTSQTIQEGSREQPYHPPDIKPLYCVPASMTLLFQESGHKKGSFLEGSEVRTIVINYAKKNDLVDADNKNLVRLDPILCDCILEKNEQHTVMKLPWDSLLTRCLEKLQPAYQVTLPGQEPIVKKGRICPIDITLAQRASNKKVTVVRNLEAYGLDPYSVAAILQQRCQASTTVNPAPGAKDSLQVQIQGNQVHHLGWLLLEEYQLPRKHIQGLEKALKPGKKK
UniProt P57772: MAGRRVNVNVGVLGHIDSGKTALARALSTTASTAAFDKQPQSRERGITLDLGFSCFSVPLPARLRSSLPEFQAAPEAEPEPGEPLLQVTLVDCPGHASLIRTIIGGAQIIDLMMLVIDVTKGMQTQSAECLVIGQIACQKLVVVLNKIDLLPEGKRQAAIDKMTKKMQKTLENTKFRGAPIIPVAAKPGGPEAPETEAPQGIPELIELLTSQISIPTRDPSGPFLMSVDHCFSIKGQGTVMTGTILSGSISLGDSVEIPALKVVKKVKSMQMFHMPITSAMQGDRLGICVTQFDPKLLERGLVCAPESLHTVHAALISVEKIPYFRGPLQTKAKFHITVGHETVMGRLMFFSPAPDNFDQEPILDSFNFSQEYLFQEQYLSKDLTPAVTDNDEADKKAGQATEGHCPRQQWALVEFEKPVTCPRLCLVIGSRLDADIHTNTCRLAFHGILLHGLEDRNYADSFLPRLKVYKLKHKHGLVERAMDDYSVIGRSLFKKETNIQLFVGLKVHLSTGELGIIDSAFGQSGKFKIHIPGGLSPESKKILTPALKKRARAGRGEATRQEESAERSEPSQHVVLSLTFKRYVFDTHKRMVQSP
UniProt Q14240, whole entry, looked up: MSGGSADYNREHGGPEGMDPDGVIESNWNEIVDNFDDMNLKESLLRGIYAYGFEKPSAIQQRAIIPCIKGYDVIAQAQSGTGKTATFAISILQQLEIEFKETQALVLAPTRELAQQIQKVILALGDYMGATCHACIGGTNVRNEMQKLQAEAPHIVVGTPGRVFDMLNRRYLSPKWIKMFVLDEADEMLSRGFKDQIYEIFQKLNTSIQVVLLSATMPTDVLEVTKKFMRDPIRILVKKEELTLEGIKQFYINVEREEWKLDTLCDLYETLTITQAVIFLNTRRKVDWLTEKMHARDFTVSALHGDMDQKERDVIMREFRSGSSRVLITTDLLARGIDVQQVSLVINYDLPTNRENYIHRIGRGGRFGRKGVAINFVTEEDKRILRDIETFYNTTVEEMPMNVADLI
UniProt O94919: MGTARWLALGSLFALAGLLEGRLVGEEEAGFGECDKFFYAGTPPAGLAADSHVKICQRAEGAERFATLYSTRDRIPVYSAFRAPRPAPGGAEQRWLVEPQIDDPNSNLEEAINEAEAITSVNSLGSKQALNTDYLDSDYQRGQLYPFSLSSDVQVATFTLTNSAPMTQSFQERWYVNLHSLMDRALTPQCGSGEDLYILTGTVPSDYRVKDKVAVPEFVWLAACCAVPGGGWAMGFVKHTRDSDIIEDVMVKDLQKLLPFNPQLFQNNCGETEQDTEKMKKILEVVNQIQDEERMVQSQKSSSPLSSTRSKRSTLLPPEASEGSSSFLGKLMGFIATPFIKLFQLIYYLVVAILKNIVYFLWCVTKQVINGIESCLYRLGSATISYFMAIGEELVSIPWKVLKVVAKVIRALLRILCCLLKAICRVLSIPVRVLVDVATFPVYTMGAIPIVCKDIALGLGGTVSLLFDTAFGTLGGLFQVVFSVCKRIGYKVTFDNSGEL

Tests used:
Test in all cases: log2 fold change, soluble protein after heating vs DMSO (PISA); higher = thermal stabilisation; K562 cells, 10 uM, 30 min; active = over 0.2 and 3.5 SD of the protein, either way, in both replicates (recomputed)
[1] = compound: C#Cc1cccc(Nc2ncnc3cc(OCCOC)c(OCCOC)cc23)c1 [erlotinib]
Method in brief: (§1)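 For each measurement, 10 μM compound was applied for 30 min to K562 cells at 2×10^6 cells/mL. Aliquots were heated for 3 min across 48°C-58°C, pooled, and extracted in PBS with 0.5% NP-40 at 4°C; the supernatant after 21,000xg for 90 min was soluble protein. This was quantified by TMTpro 16plex LC-MS/MS with channel sums equalised, and thermal stability was reported relative to control samples from duplicates, on a log2 fold-change scale.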

[2] = compound: C/C(=N\NC(=O)C1=CC(=CC=C1)S(=O)(=O)N2CCOCC2)/C3=C(C=CC(=C3)Cl)O
Method in brief: as §1

[3] = compound: C1=CC(=C(C=C1Cl)C2=NC3=NC=CN=C3C(=N2)NC4=CC=NC=C4)F
Method in brief: as §1

[4] = compound: C1=CC(=CC=C1C2=NC3=C(N2)C=C(C=C3)C(=O)N)OC4=CC=C(C=C4)Cl
Method in brief: as §1

[5] = compound: C1=CC2=C(C=CC(=C2)/C=C\3/C(=O)NC(=NCC4=CC=CS4)S3)N=C1
Method in brief: as §1

[6] = compound: C1=CC2=NC=CN=C2C=C1/C=C/3\C(=O)NC(=O)S3
Method in brief: as §1

[7] = compound: C1=CC=C(C=C1)C2=NC(=C(N2)C3=CC=NC=C3)C4=CC(=C(C=C4)Cl)O
Method in brief: as §1

[8] = compound: C1=CC=C2C(=C1)C3=NNC4=CC=CC(=C43)C2=O
Method in brief: as §1

[9] = compound: C1CCN(C1)C(=O)NC2=CC=CC(=C2)NC3=NC=C(C(=N3)NCCC4=CN=CN4)Br
Method in brief: as §1

[10] = compound: C1CN(CCC1(CC2=CC=C(C=C2)Cl)N)C3=NC=NC4=C3C=CN4
Method in brief: as §1

[11] = compound: C1COCCN1CCN2C3=CC=CC=C3N=C2NC(=O)C4=CC(=CC=C4)[N+](=O)[O-] [IRAK-1-4 Inhibitor I]
Method in brief: as §1

[12] = compound: C=CC(=O)N1CCC[C@@H](n2nc(-c3ccc(Oc4ccccc4)cc3)c3c(N)ncnc32)C1 [ibrutinib]
Method in brief: as §1

[13] = compound: CC(=O)c1cnc2ccc(-c3cc(Cl)c(O)c(Cl)c3)nc2c1N[C@H]1CC[C@H](CN(C)C)CC1
Method in brief: as §1

[14] = compound: CC(C)(C)Cn1c(N)nc2ccc(-c3[nH]c(C(C)(C)C)nc3-c3ccc(F)cc3)nc21 [ralimetinib]
Method in brief: as §1

[15] = compound: CC(C)(O)CC(=O)NCCn1ccc2ncnc(Nc3ccc(Oc4cccc(C(F)(F)F)c4)c(Cl)c3)c21
Method in brief: as §1

[16] = compound: CC(C)C1=C2N=C(C=C(N2N=C1)NCC3=CC=CC=C3)NCCCCCCN
Method in brief: as §1

[17] = compound: CC(C)C[C@@H](C=O)NC(=O)[C@H](CC(C)C)NC(=O)[C@H](CC(C)C)NC(=O)OCc1ccccc1
Method in brief: as §1

[18] = compound: CC(C)N(C[C@H]1O[C@@H](n2cnc3c(N)ncnc32)[C@H](O)[C@@H]1O)[C@H]1C[C@@H](CCc2nc3cc(C(C)(C)C)ccc3[nH]2)C1 [pinometostat]
Method in brief: as §1

[19] = compound: CC1=C(C(CC(=O)N1)C2=CC=C(C=C2)C(F)(F)F)C(=O)NC3=C(C=C4C(=C3)C=NN4)F
Method in brief: as §1

[20] = compound: CC1=C(C2=C(C=C1)C(=O)C3=CC=CC=C3N2CCCN)C
Method in brief: as §1

Measured: log2 fold change

EMC10 (UniProt Q5UCC4)
inactive: [1] 0 | [2] -0.05 | [3] 0.014 | [4] -0.004 | [5] 0.016 | [6] 0.004 | [7] 0 | [8] -0.087 | [9] -0.004 | [10] 0.045 | [11] 0.022 | [12] 0.047 | [13] -0.041 | [14] -0.015 | [15] -0.046 | [16] 0.011 | [17] 0.017 | [18] 0.012 | [19] -0.023 | [20] 0.031

EMC2 (UniProt Q15006)
inactive: [1] -0.045 | [2] 0.06 | [3] 0.046 | [4] -0.01 | [5] 0.034 | [6] 0.019 | [7] 0.085 | [8] 0.026 | [9] -0.03 | [10] 0.035 | [11] 0.017 | [12] -0.034 | [13] -0.016 | [14] 0.029 | [15] -0.007 | [16] -0.022 | [17] -0.065 | [18] -0.067 | [19] -0.003 | [20] 0.016

EIF1 (UniProt P41567)
inactive: [1] -0.09 | [2] -0.027 | [3] 0.055 | [4] 0.021 | [5] -0.073 | [6] 0.028 | [7] -0.03 | [8] 0.001 | [9] 0.049 | [10] 0.024 | [11] 0.074 | [12] 0.074 | [13] 0 | [14] -0.064 | [15] 0.059 | [16] 0.091 | [17] 0.012 | [18] -0.025 | [19] 0.061 | [20] -0.089

EML4 (UniProt Q9HC35)
inactive: [1] 0.032 | [2] -0.033 | [3] -0.055 | [4] 0.002 | [5] 0.013 | [6] -0.005 | [7] 0.014 | [8] 0.041 | [9] -0.043 | [10] -0.204 | [11] -0.053 | [12] -0.016 | [13] 0.033 | [14] 0.167 | [15] -0.029 | [16] -0.17 | [17] 0.139 | [18] 0.232 | [19] -0.02 | [20] -0.129

EIF5A isoform 2 (UniProt P63241)
inactive: [1] -0.001 | [2] 0.116 | [3] 0.074 | [4] -0.033 | [5] 0.024 | [6] 0.027 | [7] 0.089 | [8] 0.033 | [9] -0.049 | [10] -0.016 | [11] 0.004 | [12] -0.025 | [13] 0.027 | [14] 0.063 | [15] -0.093 | [16] -0.153 | [17] -0.059 | [18] -0.027 | [19] -0.068 | [20] 0.045

ENO3 (UniProt P13929)
inactive: [1] -0.006 | [2] 0.038 | [3] 0.193 | [4] 0.005 | [5] -0.094 | [6] 0.035 | [7] 0.051 | [8] -0.026 | [9] -0.058 | [10] 0.065 | [11] 0.025 | [12] 0.088 | [13] 0.04 | [14] 0.054 | [15] -0.062 | [16] 0.011 | [17] -0.044 | [18] 0.007 | [19] 0.116 | [20] -0.041

EHHADH (UniProt Q08426)
inactive: [1] -0.013 | [2] -0.005 | [3] 0.021 | [4] 0.115 | [5] 0.03 | [6] -0.005 | [7] -0.007 | [8] 0.044 | [9] -0.012 | [10] 0.016 | [11] -0.029 | [12] 0.014 | [13] -0.037 | [14] -0.016 | [15] -0.04 | [16] 0.099 | [17] -0.011 | [18] 0.008 | [19] -0.001 | [20] 0.156

EML3 (UniProt Q32P44)
inactive: [1] 0.04 | [2] 0.163 | [3] -0.08 | [4] -0.011 | [5] -0.219 | [6] 0.045 | [7] 0.005 | [8] 0 | [9] -0.131 | [10] -0.068 | [11] -0.089 | [12] 0.022 | [13] 0.029 | [14] 0.11 | [15] 0.013 | [16] -0.138 | [17] 0.181 | [18] 0.266 | [19] -0.007 | [20] 0.049

Pulled one by one from the list above (two):
EIF5A isoform 2 (UniProt P63241)
inactive: [1] -0.001 | [2] 0.116 | [3] 0.074 | [4] -0.033 | [5] 0.024 | [6] 0.027 | [7] 0.089 | [8] 0.033 | [9] -0.049 | [10] -0.016 | [11] 0.004 | [12] -0.025 | [13] 0.027 | [14] 0.063 | [15] -0.093 | [16] -0.153 | [17] -0.059 | [18] -0.027 | [19] -0.068 | [20] 0.045

EHHADH (UniProt Q08426)
inactive: [1] -0.013 | [2] -0.005 | [3] 0.021 | [4] 0.115 | [5] 0.03 | [6] -0.005 | [7] -0.007 | [8] 0.044 | [9] -0.012 | [10] 0.016 | [11] -0.029 | [12] 0.014 | [13] -0.037 | [14] -0.016 | [15] -0.04 | [16] 0.099 | [17] -0.011 | [18] 0.008 | [19] -0.001 | [20] 0.156

More results follow.

ELP4 isoform 3 (UniProt Q96EB1)
inactive: [1] -0.002 | [2] -0.025 | [3] 0.028 | [4] 0.031 | [5] -0.052 | [6] 0.032 | [7] 0.02 | [8] 0.002 | [9] -0.001 | [10] 0.04 | [11] 0.038 | [12] 0.037 | [13] 0.036 | [14] -0.001 | [15] 0.004 | [16] 0.068 | [17] 0 | [18] -0.02 | [19] -0.008 | [20] 0.003

EIF2S1 (UniProt P05198)
inactive: [1] -0.001 | [2] -0.039 | [3] -0.141 | [4] -0.004 | [5] -0.035 | [6] -0.011 | [7] -0.052 | [8] 0.008 | [9] -0.026 | [10] -0.052 | [11] -0.116 | [12] 0.002 | [13] 0.008 | [14] 0.031 | [15] 0.03 | [16] 0.039 | [17] 0.051 | [18] 0.073 | [19] 0.011 | [20] 0.172

EIF2D (UniProt P41214)
inactive: [1] 0.189 | [2] 0.068 | [3] -0.065 | [4] 0 | [5] 0.152 | [6] -0.022 | [7] 0.015 | [8] 0.028 | [9] -0.048 | [10] -0.198 | [11] -0.188 | [12] -0.026 | [13] -0.108 | [14] 0.111 | [15] -0.139 | [16] -0.294 | [17] 0.032 | [18] 0.207 | [19] 0.04 | [20] -0.032

EEF2 (UniProt P13639)
inactive: [1] -0.015 | [2] 0.009 | [3] 0.05 | [4] 0.011 | [5] -0.01 | [6] -0.005 | [7] 0.025 | [8] -0.026 | [9] -0.017 | [10] 0.032 | [11] 0.034 | [12] 0.003 | [13] -0.009 | [14] -0.007 | [15] -0.012 | [16] 0.062 | [17] -0.002 | [18] -0.056 | [19] 0.008 | [20] 0.001

EEFSEC (UniProt P57772)
inactive: [1] 0.049 | [2] -0.066 | [3] -0.03 | [4] -0.029 | [5] 0.093 | [6] -0.08 | [7] 0.048 | [8] 0.028 | [9] 0.025 | [10] 0.03 | [11] 0.001 | [12] 0.057 | [13] 0.02 | [14] 0.051 | [15] -0.019 | [16] -0.096 | [17] -0.049 | [18] 0.117 | [19] 0.014 | [20] 0.169

EIF4A2 isoform 2 (UniProt Q14240)
inactive: [1] -0.001 | [2] 0.091 | [3] 0.029 | [4] -0.029 | [5] 0.027 | [6] 0.008 | [7] 0.033 | [8] -0.007 | [9] -0.022 | [10] 0.06 | [11] -0.001 | [12] -0.039 | [13] -0.097 | [14] -0.033 | [15] -0.036 | [16] -0.042 | [17] -0.008 | [18] -0.019 | [19] 0.009 | [20] 0.023

ELAC2 (UniProt Q9BQ52)
inactive: [1] 0.016 | [2] 0.022 | [3] 0.028 | [4] 0.042 | [5] -0.017 | [6] 0.018 | [7] 0.025 | [8] 0.005 | [9] 0.001 | [10] 0.073 | [11] 0.016 | [12] 0.034 | [13] 0 | [14] -0.019 | [15] -0.059 | [16] 0.062 | [17] -0.005 | [18] -0.007 | [19] 0.011 | [20] 0

ENDOD1 (UniProt O94919)
inactive: [1] -0.037 | [2] -0.014 | [3] -0.067 | [4] 0.003 | [5] -0.019 | [6] 0.028 | [7] 0.016 | [8] 0.021 | [9] 0.036 | [10] 0.038 | [11] 0.001 | [12] -0.004 | [13] -0.02 | [14] 0.043 | [15] 0.048 | [16] 0.043 | [17] -0.039 | [18] -0.005 | [19] -0.029 | [20] 0.033
